Paper doi:10.1101/2023.11.01.565146

Columns and labels:
[1] = biological target: T1, GST-Mlph-ABD (the GST-tagged ABD of Mlph, residues 401-590) (mouse) (UniProt Q91V27); assay: pull-down
T1 sequence: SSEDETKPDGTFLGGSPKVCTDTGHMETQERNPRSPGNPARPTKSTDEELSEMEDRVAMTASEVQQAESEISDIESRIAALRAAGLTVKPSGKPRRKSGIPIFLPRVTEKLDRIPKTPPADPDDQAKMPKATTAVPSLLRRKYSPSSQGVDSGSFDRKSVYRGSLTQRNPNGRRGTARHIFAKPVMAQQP

[2] = biological target: T1, GST-Mlph-ABD (the GST-tagged ABD of Mlph, residues 401-590) (mouse); assay: condition: 4 µM Myo5a-MTD truncation, 2 µM GST-Mlph-ABD
[3] = biological target: T2, Mlph-EFBD (as used in Figure 2C) (mouse) (UniProt Q91V27); assay: pull-down
T2 sequence: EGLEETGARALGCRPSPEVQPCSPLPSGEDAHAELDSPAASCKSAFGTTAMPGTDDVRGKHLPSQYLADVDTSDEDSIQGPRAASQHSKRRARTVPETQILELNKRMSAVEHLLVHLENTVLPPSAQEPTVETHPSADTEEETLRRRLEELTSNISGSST

[4] = biological target: T1, GST-Mlph-ABD (the GST-tagged ABD of Mlph, residues 401-590) (mouse); assay: pull-down; remark: listed apart in the source
[5] = biological target: T3, GST-Mlph-ABD E449A (mouse) (UniProt Q91V27); assay: condition: 4 µM Myo5a-MTD, 2 µM GST-Mlph-ABD construct
T3 sequence: T1 sequence with E49A

[6] = biological target: T4, GST-Mlph-ABD E452A (mouse) (UniProt Q91V27); assay: as above
T4 sequence: T1 sequence with E52A

[7] = biological target: T5, GST-Mlph-ABD E454A (mouse) (UniProt Q91V27); assay: pull-down
T5 sequence: T1 sequence with E54A

[8] = biological target: T6, GST-Mlph-ΔRBD (residues 148-590) (mouse) (UniProt Q91V27); assay: pull-down
T6 sequence: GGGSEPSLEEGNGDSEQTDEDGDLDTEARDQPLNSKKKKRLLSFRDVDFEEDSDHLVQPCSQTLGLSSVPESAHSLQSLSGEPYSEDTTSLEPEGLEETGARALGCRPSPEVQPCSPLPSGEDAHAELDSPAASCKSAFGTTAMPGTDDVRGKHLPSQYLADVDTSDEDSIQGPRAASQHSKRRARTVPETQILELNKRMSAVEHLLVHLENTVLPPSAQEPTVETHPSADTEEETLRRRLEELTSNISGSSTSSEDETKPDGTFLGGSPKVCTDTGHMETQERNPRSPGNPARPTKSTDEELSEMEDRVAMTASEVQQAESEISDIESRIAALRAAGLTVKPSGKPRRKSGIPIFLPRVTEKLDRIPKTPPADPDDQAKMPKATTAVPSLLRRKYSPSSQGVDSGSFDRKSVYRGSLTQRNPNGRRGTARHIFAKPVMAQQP

[9] = biological target: T7, GST-Mlph-ABD D447A (mouse) (UniProt Q91V27); assay: pull-down
T7 sequence: T1 sequence with D47A

[10] = biological target: T8, Flag-Mlph-EFBD (residues 241-400) (mouse) (UniProt Q91V27); assay: pull-down
T8 sequence: T2 sequence

[11] = biological target: T9, GST-Mlph-ABD R568A (mouse) (UniProt Q91V27); assay: pull-down
T9 sequence: T1 sequence with R168A

[12] = biological target: T10, GST-Mlph-ABD R562A (mouse) (UniProt Q91V27); assay: pull-down
T10 sequence: T1 sequence with R162A

[13] = biological target: Flag-Myo5a-MTD (residues 1106-1467), bacterial-expressed; assay: pull-down

binding [1]: binds
Molecule: Flag-Trx-Myo5a (1411-1467) (domain or fragment)

Molecule: Flag-Myo5a-MTDΔF (domain or fragment)
binding [1]: binds

Molecule: Flag-Myo5a-MTDΔG (domain or fragment)
binding [2]: no binding
binding [3]: binds

binding [4]: binds weakly
Molecule: Flag-Trx-Myo5a (1436-1467) (domain or fragment)

Molecule: Flag-Myo5a-MTD (residues 1106-1467), bacterial-expressed (domain or fragment)
binding [5]: no binding
binding [6]: no binding
binding [7]: binds
binding [8]: binds
binding [9]: binds
binding [10]: binds
binding [4]: binds
binding [11]: binds
binding [3]: binds
binding [12]: binds
binding [1]: binds

B1: GST-Mlph-ΔRBD (residues 148-590) (domain or fragment, UniProt Q91V27 148-590)
chain: T6 sequence
binding [13]: binds

Positions count from the first letter of the chain named. These are yes or no findings as the source states them, for the method shown. For some assays here: Binding calls can cover weak binding; strength is not graded here. For some assays here: Tags and fused reporters may be left off the sequences shown. Each block holds one molecule with its values, some of them ahead of it.
